According to US11332490B1, “Compounds and methods for treating osteoarthritis” (Academia Sinica, priority 2021, dated 2022):
At least one compound was matched to its structure with a doubt left.

Assays:
Sulf-1 [1] = target: T1, Sulf-1 (Homo sapiens, UniProt Q8IWU6); assay: Competition assay with 4-MUS substrate (fluorogenic); format: biochemical; parameters: made in house; details: competitor 320 μM (0.32 mM), 4-MUS 4.35 mM
Protocol: Competition assay with 4-MUS substrate. […] A control mixture without the competing substrate was defined as 100% fluorescent intensity, and the sample with substrate was determined as percentage of fluorescent intensity: (Fluorescent intensity of substrate sample)/(Fluorescent intensity of control sample).
HS oligosaccharides of Example 1.2 were used as competing substrates in the presence of 4-MUS for the identification of Sulf-1 substrate. Compounds 18-20 as well as the commercially available heparin 3000 were independently assessed for their competing effect on 4-MUS cleavage by Sulf-1 to yield the fluorescent 4-methylumbelliferone (4-MU) (FIG. 1, (A)).

Sulf-1 [2] = target: T1, Sulf-1; assay: HPLC assay of sulfate ion release from the substrate by Sulf-1

## NCCCCCO[C@@H]1OC(C(=O)O)C(O[C@H]2OC(COS(=O)(=O)O)[C@@H](O[C@@H]3OC(C(=O)O)C(O)[C@@H](O)C3OS(=O)(=O)O)[C@H](O)C2NS(=O)(=O)O)[C@@H](O)C1OS(=O)(=O)O (stereo partly shown) [Compound 36]
Sulf-1 [1]
  competing effect on 4-MUS cleavage by Sulf-1 (in words): significant potential to reduce the hydrolysis of 4-MUS
Sulf-1 [2]; 480 μM substrate, 1 μL Sulf-1, 16 h
  SO4 2− obtained: 49.9 µM
Sulf-1 [2]; 480 μM substrate, 2 μL Sulf-1
  time at which Sulf-1 activity reached a maximum: 2 h
Sulf-1 [2]; 480 μM substrate, 2 μL Sulf-1, 16 h
  SO4 2− obtained: 93.5 µM
Sulf-1 [2]; 480 μM substrate, 5 μL Sulf-1, 16 h
  SO4 2− obtained: 155.8 µM
Sulf-1 [2]; released sulfate at different substrate concentrations
  Vmax: 14.1 M/h
Sulf-1 [2]; substrate 480 μM, treated with human Sulf-1, HPLC
  sulfate concentration upon hydrolysis by Sulf-1: 381.1 µM
